# Construct, isoform or probe ends are uncertain for at least one entry. At least one verdict was read from the data and is not stated in words by the source.
# Chains of the proteins cited; added tags and fusions are not shown. Where a name states a change or a piece, a line headed by the entry shows the natural chain unless it says otherwise. Chains listed by the source or under a name are the forms on record and can include a tag or linker.
# UniProt Q16629: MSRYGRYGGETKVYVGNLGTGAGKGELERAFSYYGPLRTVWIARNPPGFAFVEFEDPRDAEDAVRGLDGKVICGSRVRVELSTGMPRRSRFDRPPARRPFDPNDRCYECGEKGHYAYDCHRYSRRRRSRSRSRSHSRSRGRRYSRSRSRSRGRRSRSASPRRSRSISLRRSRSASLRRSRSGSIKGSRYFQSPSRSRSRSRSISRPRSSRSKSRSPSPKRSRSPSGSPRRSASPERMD
# DROSHA D3-G2 complex (DROSHA fragment D3 + DGCR8 fragment G2) (human), one chain, as listed by the source, chain 2 of 2: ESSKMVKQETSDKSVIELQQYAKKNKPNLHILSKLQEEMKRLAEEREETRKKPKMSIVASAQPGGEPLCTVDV
# DROSHA D3-G2 complex (DROSHA fragment D3 + DGCR8 fragment G2) (human), one chain, as listed by the source, chain 1 of 2: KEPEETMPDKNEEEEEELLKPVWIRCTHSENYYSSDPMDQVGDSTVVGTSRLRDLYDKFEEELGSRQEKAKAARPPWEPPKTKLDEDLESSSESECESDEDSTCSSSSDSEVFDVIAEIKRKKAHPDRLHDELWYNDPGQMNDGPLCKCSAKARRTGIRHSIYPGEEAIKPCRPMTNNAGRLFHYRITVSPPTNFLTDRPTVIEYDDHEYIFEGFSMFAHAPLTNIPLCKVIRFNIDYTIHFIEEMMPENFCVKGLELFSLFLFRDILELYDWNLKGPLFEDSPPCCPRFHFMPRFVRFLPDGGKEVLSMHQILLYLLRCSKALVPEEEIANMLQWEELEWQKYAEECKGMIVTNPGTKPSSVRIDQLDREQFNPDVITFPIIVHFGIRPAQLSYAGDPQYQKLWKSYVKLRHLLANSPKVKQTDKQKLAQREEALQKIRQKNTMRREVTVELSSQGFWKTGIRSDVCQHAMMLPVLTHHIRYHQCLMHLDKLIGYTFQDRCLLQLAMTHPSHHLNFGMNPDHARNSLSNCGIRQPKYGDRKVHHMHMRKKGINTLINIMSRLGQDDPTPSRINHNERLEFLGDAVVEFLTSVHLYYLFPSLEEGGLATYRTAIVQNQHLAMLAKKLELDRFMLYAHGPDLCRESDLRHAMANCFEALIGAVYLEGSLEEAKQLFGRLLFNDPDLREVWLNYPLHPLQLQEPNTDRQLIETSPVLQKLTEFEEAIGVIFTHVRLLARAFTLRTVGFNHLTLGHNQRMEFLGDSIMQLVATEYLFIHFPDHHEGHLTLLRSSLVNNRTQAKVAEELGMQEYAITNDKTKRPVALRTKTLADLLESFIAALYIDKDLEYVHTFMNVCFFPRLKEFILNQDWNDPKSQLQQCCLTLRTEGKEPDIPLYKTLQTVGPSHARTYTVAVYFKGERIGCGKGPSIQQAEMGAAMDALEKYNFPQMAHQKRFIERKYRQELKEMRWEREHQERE
# Assays:
# [1] = tested on: DROSHA D3-G2 complex (DROSHA fragment D3 + DGCR8 fragment G2) (human); assay: EMSA; details: 2 mM EDTA, 10 pmol DROSHA (legend, Methods say 20 pmol), 2 pmol RNA, EMSA: 50 mM Tris-HCl pH 7.5, 125 mM NaCl, 10% glycerol, 0.2 mg/ml BSA, 1 mM DTT, 12 ul, on ice 1 h, 4% native PAGE, 1x TBE, 4 C, ethidium bromide, recombinant protein
# [2] = target: SRSF7 (human) (UniProt Q16629); assay: EMSA; details: 2 mM EDTA, 26 pmol SRSF7, 2 pmol RNA, EMSA: 50 mM Tris-HCl pH 7.5, 125 mM NaCl, 10% glycerol, 0.2 mg/ml BSA, 1 mM DTT, 12 ul, on ice 1 h, 4% native PAGE, 1x TBE, 4 C, ethidium bromide, recombinant protein, protein details: C-terminal GFP and 10xHis
sequence,measurement,setting,value
"GGGCGGACAGACAGACAGUGCAGUCACCCAUAAAGUAGAAAGCACUACUAACAGCACUGGAGGGUGUAGUGUUUCCUACUUUAUGGAUGAGUGUACUGUGGGCUUCGG [pri-miR-142 (CNNC, CUUC WT)]",binding result,[1],binds
same,binding result,[2],binds

# Source: paper PMC9905709
